Measurements reported in patent publication US8614021B2, “Agents for enhanced charge transport across microbial membranes” (The United States of America as represented by the …, priority 2010, dated 2013).

Experiment: Cryo-TEM and confocal microscopy of membrane modified vesicles (incorporation, molecular orientation)
Conditions: for accumulation in vesicle membranes (confocal fluorescence): multi-lamellar DMPC and DPPC vesicles, 5 mol % COE, excitation 488 nm; for molecular orientation within lipid bilayers: stationary vesicle, polarized excitation source

| Structure (SMILES) | accumulation in vesicle membranes (confocal fluorescence) | molecular orientation within lipid bilayers |
| --- | --- | --- |
| C[N+](C)(C)CCCCCCN(CCCCCC[N+](C)(C)C)c1ccc(C=Cc2ccc(C=Cc3ccc(N(CCCCCC[N+](C)(C)C)CCCCCC[N+](C)(C)C)cc3)cc2)cc1.[I-].[I-].[I-].[I-] [DSBN+, 1,4-bis(4′-(N,N-bis(6″-(N,N,N-trimethylammonium)hexyl)amino)-styryl)benzene tetraiodide] | preferential accumulation inside the vesicle membranes | ordered orientation with the long axis perpendicular to the plane of the membrane |
| C[N+](C)(C)CCCCCCN(CCCCCC[N+](C)(C)C)c1ccc(/C=C/c2ccc(/C=C/c3ccc(/C=C/c4ccc(N(CCCCCC[N+](C)(C)C)CCCCCC[N+](C)(C)C)cc4)cc3)cc2)cc1 [DSSN+, 4,4′-bis(4′-(N,N-bis(6″-(N,N,N-trimethylammonium)hexyl)amino)-styryl)stilbene tetraiodide] | preferential accumulation inside the vesicle membranes | ordered orientation with the long axis perpendicular to the plane of the membrane |
